Assay results published in US20230039109A1 (Novartis, published 2023).
Positions count from the first letter of the chain named. No constants are given. Whether binding was seen depends on the method and setting. Some entries that bind do so weakly or less than the wild type. Blank lines part the entries; values can stand above or below the binder they belong to.

Target: Cynomolgus CD73/NT5E Protein (His Tag) (cynomolgus monkey)
Assay: ForteBio Octet BLI

- binding: binds
B5: anti-CD73 antibody 377.C (antibody, V domains shown)
VH: EVQLLESGGGLVQPGGSLRLSCAASGFTFKSYAMSWVRQAPGKGLEWVSAISGSGSYTYYADSVKGRFTISRDNSKNTLYLQMNSLRAEDTAVYYCARGGLYGSGSYLSDFDLWGRGTLVTVSS
VL: EIVLTQSPATLSVSPGERATLSCRASQSVGSNLAWYQQKPGQAPRLLIYGASTRATGIPARFSGSGSGTEFTLTISSLQSEDFAVYYCQQHNAFPYTFGGGTKVEIK

- binding: binds
B6: anti-CD73 antibody 374.C (antibody, V domains shown)
VH: B5 VH with K30S, S31Y, Y32N, A50S, S54T, S56G, Y57S
VL: B5 VL

- binding: binds
B7: anti-CD73 antibody 379.C (antibody, V domains shown)
VH: B5 VH with K30S, S31R, A50S, S54T, S56G, Y57S
VL: B5 VL

The remaining lines, values behind:

B1: anti-CD73 antibody 350.C (antibody, V domains shown)
VH: QVQLQESGPGLVKPSETLSLTCTVSGGSIERYYWSWIRQPPGKGLEWIGYIYGRGSTNYNPSLKSRVTISVDTSKNQFSLKLSSVTAADTAVYYCARESQESPYNNWFDPWGQGTLVTVSS
VL: DIQMTQSPSSVSASVGDRVTITCRASQGISSWLAWYQQKPGKAPKLLIYAASSLQSGVPSRFSGSGSGTDFTLTISSLQPEDFATYYCQQGNSFPRTFGGGTKVEIK
- binding: binds

B2: anti-CD73 antibody 356.C (antibody, V domains shown)
VH: B1 VH with R31G, Y32R, R54S, N58K
VL: B1 VL
- binding: binds

B3: anti-CD73 antibody 358.C (antibody, V domains shown)
VH: B1 VH with E30S, R31G, Y32R, R54T
VL: B1 VL
- binding: binds

B4: anti-CD73 antibody 373.C (antibody, V domains shown)
VH: B5 VH with K30H, S31R, S56M, Y57N
VL: B5 VL
- binding: binds
